# Assay: general procedure: Fmoc solid-phase peptide synthesis; PAL Peg-PS resin; HCTU
# Conditions: whole synthesis, analytical HPLC, Vydac C18, 215 nm
row,Substance,purity (crude or final not stated)
1,[CTRPRY-amide]x2,100%
2,"[Glu4,Pro34]PYY",100%
3,"Met30,Pro34]PYY",96.9%
4,"[Ile28,Pro34]PYY",97.0%
5,[Pro34]-PYY,91.6%
6,"[Arg26,Pro34]PYY",98.9%
7,[CLTRPRY-amide]x2,99.3%
8,"[Ala1,Pro34]-PYY",95.0%
9,"[Cys2,D-Cys27]-PP",98.7%
10,"[Ala30,Pro34]-PYY",90.0%
